# Source: PubChem BioAssay AID1053208 (Peter MacCallum Cancer Centre, 2014)
# Purpose: 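Synthetic lethal interactions between gene loss and doxorubicin in osteosarcoma cells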 (primary screen)
# Cells: mouse osteosarcoma cells, early-passage culture from an engineered mouse model of fibroblastic bone tumour
# Reagent: siRNA pool against mouse genes, 40 nM
# Time to read-out: about 120 h (48 h before drug, then 72 h with drug)
# Treatment: doxorubicin 100 nM for 72 h, roughly 30-40% inhibitory dose
# Measurement: 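Luminescent ATP signal taken as viability with or without 100 nM doxorubicin for 72 h; mean of two wells set against non-targeting siRNA and turned into robust z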
# Direction: viability z-score with doxorubicin and doxorubicin viability vs non-targeting: higher = more viable cells under doxorubicin; viability z-score without drug: higher = more viable cells with knock-down alone; z-score of drug to no-drug ratio: higher = less drug sensitisation by knock-down
# Hit rule: 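Called active if knock-down leaves viability unchanged without drug (z within -2 to 2) but lowers it with doxorubicin (z at or under -2)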
# Shown is an unselected part of about 17,000 deposited reagents. In the full data, 788 (4.7%) got an active call. 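Calls rest on z-score classes alone; an extra cut-off of viability at most 70% of control was not applied to them.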 Reagent sequences are not shown.
Target gene,combined z-score class,viability z-score with doxorubicin,viability z-score without drug,z-score of drug to no-drug ratio,doxorubicin viability vs non-targeting,Call
Mxd3,no change with or without drug,0.34,-0.17,0.56,0.97,inactive
Efhd1,no change with or without drug,-1.57,-0.84,-1.01,0.8,inactive
Cldn9,no change with or without drug,0,-0.51,0.45,0.94,inactive
Dact2,no change with or without drug,0.34,1.18,-0.34,0.97,inactive
A430085C19 (retired record),no change with or without drug,-0.45,-1.18,0.45,0.9,inactive
Sf3a1,low cell count with and without drug,-4.5,-3.37,-2.92,0.54,inactive
Tmem208,no change with or without drug,0.56,0.17,0.56,0.99,inactive
Coch,no change with or without drug,-0.34,-0.17,-0.11,0.91,inactive
Pum3,no change with or without drug,-0.9,1.01,-1.46,0.86,inactive
Stom,no change with or without drug,0,0.17,0,0.94,inactive
Suv39h1,no change with or without drug,0,0.84,-0.45,0.94,inactive
Pkp4,no change with or without drug,0.67,0.84,0.22,1,inactive
Aspm,no change with or without drug,0.34,0.67,0,0.97,inactive
4930483J18Rik,low cell count with doxorubicin only,-2.25,-0.17,-2.14,0.74,active
Srsf7,no change with or without drug,0.67,-1.52,2.02,1,inactive
Apobr,no change with or without drug,-0.67,0.84,-1.12,0.88,inactive
Neu4,no change with or without drug,-0.45,0.17,-0.45,0.9,inactive
Helb,no change with or without drug,0.11,1.85,-0.9,0.95,inactive
Cybb,no change with or without drug,0.22,-1.85,1.8,0.96,inactive
Ajuba,no change with or without drug,-0.34,0.51,-0.56,0.91,inactive
Or8k17,no change with or without drug,-1.01,-1.85,0.34,0.85,inactive
Vmn1r201,no change with or without drug,-1.8,-0.17,-1.69,0.78,inactive
Synb,no change with or without drug,-0.22,-0.51,0.22,0.92,inactive
Fgf2,no change with or without drug,-0.67,0.34,-0.79,0.88,inactive
H1f10,no change with or without drug,0,-0.51,0.45,0.94,inactive
Ankrd34c,high cell count without drug only,0.45,2.02,-0.67,0.98,inactive
Fam3c,no change with or without drug,-1.35,-0.51,-1.01,0.82,inactive
Rpp14,no change with or without drug,-1.46,-1.52,-0.45,0.81,inactive
Ssmem1,no change with or without drug,-0.67,0.17,-0.67,0.88,inactive
Slurp1,no change with or without drug,-1.69,0.84,-2.14,0.79,inactive
Lrrc58,no change with or without drug,-1.46,-0.17,-1.35,0.81,inactive
Kcnq5,no change with or without drug,-1.35,-0.84,-0.79,0.82,inactive
Fpr2,no change with or without drug,-0.22,0.84,-0.67,0.92,inactive
F2rl3,no change with or without drug,-0.34,-1.18,0.56,0.91,inactive
Cul3,no change with or without drug,-0.34,-0.17,-0.11,0.91,inactive
Fam187a,low cell count with doxorubicin only,-2.47,0.51,-2.81,0.72,active
Hltf,low cell count without drug only,-1.35,-2.02,0.11,0.82,inactive
Hsdl1,no change with or without drug,0.79,-0.17,1.01,1.01,inactive
H2-T13,no change with or without drug,1.35,-0.84,2.25,1.06,inactive
Sorbs1,no change with or without drug,-0.67,-0.34,-0.34,0.88,inactive
Tnnc2,no change with or without drug,-0.9,0.67,-1.24,0.86,inactive
Nefh,no change with or without drug,1.01,1.52,0.11,1.03,inactive
Sigirr,high cell count without drug only,0.67,2.19,-0.56,1,inactive
Elavl3,high cell count without drug only,-0.67,2.36,-1.91,0.88,inactive
Atp5f1e,low cell count with and without drug,-2.92,-2.53,-1.46,0.68,inactive
Zfp932,high cell count with doxorubicin only,2.02,1.69,1.01,1.12,inactive
Gstm5,no change with or without drug,1.01,-0.51,1.57,1.03,inactive
Serf1,no change with or without drug,-0.45,-1.85,1.01,0.9,inactive
Or5p57,no change with or without drug,0.11,-0.51,0.56,0.95,inactive
Htr3a,no change with or without drug,-0.45,-1.35,0.56,0.9,inactive

Reformatted: results already given
{"Target gene":"Neu4","combined z-score class":"no change with or without drug","viability z-score with doxorubicin":-0.45,"viability z-score without drug":0.17,"z-score of drug to no-drug ratio":-0.45,"doxorubicin viability vs non-targeting":0.9,"Call":"inactive"}
{"Target gene":"Helb","combined z-score class":"no change with or without drug","viability z-score with doxorubicin":0.11,"viability z-score without drug":1.85,"z-score of drug to no-drug ratio":-0.9,"doxorubicin viability vs non-targeting":0.95,"Call":"inactive"}
{"Target gene":"Cybb","combined z-score class":"no change with or without drug","viability z-score with doxorubicin":0.22,"viability z-score without drug":-1.85,"z-score of drug to no-drug ratio":1.8,"doxorubicin viability vs non-targeting":0.96,"Call":"inactive"}
{"Target gene":"Ajuba","combined z-score class":"no change with or without drug","viability z-score with doxorubicin":-0.34,"viability z-score without drug":0.51,"z-score of drug to no-drug ratio":-0.56,"doxorubicin viability vs non-targeting":0.91,"Call":"inactive"}
{"Target gene":"Or8k17","combined z-score class":"no change with or without drug","viability z-score with doxorubicin":-1.01,"viability z-score without drug":-1.85,"z-score of drug to no-drug ratio":0.34,"doxorubicin viability vs non-targeting":0.85,"Call":"inactive"}
{"Target gene":"Vmn1r201","combined z-score class":"no change with or without drug","viability z-score with doxorubicin":-1.8,"viability z-score without drug":-0.17,"z-score of drug to no-drug ratio":-1.69,"doxorubicin viability vs non-targeting":0.78,"Call":"inactive"}
{"Target gene":"Synb","combined z-score class":"no change with or without drug","viability z-score with doxorubicin":-0.22,"viability z-score without drug":-0.51,"z-score of drug to no-drug ratio":0.22,"doxorubicin viability vs non-targeting":0.92,"Call":"inactive"}
